Construct, isoform or probe ends are uncertain for at least one entry. A weaker result is weaker than the reference pair of the same experiment. At least one verdict was read from the data and is not stated in words by the source. Tags and fusion partners may be left off the protein sequences shown.
Biological target: T1, YneJ (UniProt P77309)
T1 sequence (looked up, limits assumed): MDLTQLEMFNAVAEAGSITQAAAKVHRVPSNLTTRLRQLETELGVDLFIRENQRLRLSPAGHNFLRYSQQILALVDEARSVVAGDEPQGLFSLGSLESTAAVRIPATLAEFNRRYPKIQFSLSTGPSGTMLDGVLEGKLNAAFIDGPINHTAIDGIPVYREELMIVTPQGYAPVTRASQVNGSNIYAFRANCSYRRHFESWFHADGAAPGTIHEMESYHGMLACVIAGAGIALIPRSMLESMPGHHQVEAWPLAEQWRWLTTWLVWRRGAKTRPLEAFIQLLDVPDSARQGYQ
Experiment: fluorescence polarization
Details: PBS (pH 6.5), 0.5 mM EDTA, 7 mM MgCl2, 100 mM KCl, 5 mM phosphate, herring sperm DNA, 50 C, 10 nM labeled dsDNA, recombinant protein

| Sequence | binding result (negative control, label: 6-FAM on S39 (printed at the 5' end)) | binding result (no metabolite, no AcrR) |
| --- | --- | --- |
| GGGAGTATTCGCGGTAGTTATGATTGGG (double strand) [leuO promoter 28 bp] | binds more weakly |  |
| GGGTTCTCGATTCGTGAAGGG (double strand) [sad-yneJ consensus motif 21 bp] |  | binds more weakly |

From PMC9283627, “Auxotrophic and prototrophic conditional genetic networks reveal the rewiring of transcription factors in Escherichia coli”
